These results are taken from publication PMC8939146.

These are yes or no findings as the source states them, for the method shown. Binding seen in cells or lysates may run through a third protein. Some entries that bind do so weakly or less than the wild type.

Experiment [1] deals with Signal transducer and activator of transcription 1 (STAT1) (human (endogenous in HCT116)) (UniProt P42224). Description: condition: only cells treated with 50 μM THIF for 6 h; co-IP; as a1, the sample of HCT116 cells treated with 50 μM THIF for 6 h.
Experiment [2] concerns the target T1, Signal transducer and activator of transcription 1 (STAT1) (human (endogenous in HCT116)), P42224.
T1 chain: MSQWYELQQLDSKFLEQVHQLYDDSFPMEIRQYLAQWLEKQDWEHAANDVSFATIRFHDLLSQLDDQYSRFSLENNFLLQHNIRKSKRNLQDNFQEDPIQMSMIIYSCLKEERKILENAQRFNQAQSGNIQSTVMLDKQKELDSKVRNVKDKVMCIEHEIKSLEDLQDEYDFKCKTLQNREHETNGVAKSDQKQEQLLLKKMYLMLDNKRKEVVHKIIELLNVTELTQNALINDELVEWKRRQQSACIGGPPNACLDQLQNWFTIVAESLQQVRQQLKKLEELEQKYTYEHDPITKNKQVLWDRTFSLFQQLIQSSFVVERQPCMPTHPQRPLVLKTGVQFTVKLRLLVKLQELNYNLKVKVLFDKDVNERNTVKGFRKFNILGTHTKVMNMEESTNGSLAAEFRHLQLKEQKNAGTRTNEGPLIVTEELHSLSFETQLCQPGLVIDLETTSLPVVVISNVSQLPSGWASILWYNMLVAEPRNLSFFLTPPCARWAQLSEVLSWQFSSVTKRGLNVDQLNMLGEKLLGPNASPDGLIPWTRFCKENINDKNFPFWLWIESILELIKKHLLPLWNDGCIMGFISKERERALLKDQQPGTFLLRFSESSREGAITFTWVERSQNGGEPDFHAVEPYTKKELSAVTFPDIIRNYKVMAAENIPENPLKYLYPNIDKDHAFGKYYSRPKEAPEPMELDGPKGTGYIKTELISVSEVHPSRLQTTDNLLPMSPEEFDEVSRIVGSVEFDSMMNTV
Kind of experiment: co-IP; HCT116 cells treated with vehicle (control) or 50 μM THIF for 6 h; total cell lysates (500 μg) immunoprecipitated with anti-STAT1 antibody overnight at 4 °C, protein A/G agarose 2 h at 4 °C, washed with PBS, Western blot. Particulars: remark: other sources report otherwise.

On to “phosphorylated STAT1 (from UniProt P42224 1-750)”, for which the binding result in experiment [1] is “no binding”.

B1: phosphorylated STAT1, P42224 1-750 (protein)
chain: T1 chain
modifications: here or on the partner: phosphorylated (site not stated)
Consider B1, for which the binding result in experiment [2] is “binds”.
